# Tests used:
# [1] = test system: MDA-MB-468; experiment: CCK-8 antiproliferative assay, MDA-MB-468; conditions: Homo sapiens, MDA-MB-468, 72 h, read-out: Antiproliferative IC50 MDA-MB-468
# [2] = test system: Hela nucleus extract containing a mixture of HDAC isoforms; experiment: In vitro HDAC inhibitory assay, HeLa cell nuclear extract screening at 2 µM; assay type: biochemical; conditions: 2.0 µM compound, mean of three experiments
# Method: The HDAC enzyme inhibitory activities of synthesized compounds were evaluated against Hela nucleus extract containing a mixture of HDAC isoforms. Percentage inhibitory rate (PIR) was calculated to determine the activity of tested compounds (Table 1). The compounds (D1-28) were firstly synthesized for the activity screening. […] Compared with the unsubstituted D1, the difluoride-substitution and phenyl substitution can be conducive to the inhibitory activity. […] Similarly, the methyl substitution and methoxy substitution in the phenyl ring reduced the HDAC inhibitory potency. […] To avoid excessive molecular weight and increase the HDAC inhibitory activity, the R group with small size and molecular weight could be reserved for further structural modification.
# All HDAC enzymes were purchased from BPS Bioscience. […] After standing for 20 min, the fluorescence intensity was measured at the excitation and emission wavelengths of 360 and 460 nm with a microplate reader. The inhibition rate was calculated from the fluorescence intensity readings of the test wells relative to the control wells, and the IC50 curve and value were determined by GraphPad Prism 6.0 software.
# [3] = test system: K562 cells; experiment: CCK-8 antiproliferative assay, K562; conditions: Homo sapiens, K562, read-out: K562 percentage inhibitory rate
# [4] = test system: A2780; experiment: CCK-8 antiproliferative assay, A2780; conditions: Homo sapiens, A2780, 72 h, read-out: Antiproliferative IC50 A2780
# [5] = test system: MCF-7; experiment: CCK-8 antiproliferative assay, MCF-7; conditions: Homo sapiens, MCF7, 72 h, read-out: Antiproliferative IC50 MCF-7
# [6] = test system: A549; experiment: CCK-8 antiproliferative assay, A549; conditions: Homo sapiens, A549, 72 h, read-out: Antiproliferative IC50 A549
# [7] = test system: MDA-MB-231; experiment: CCK-8 antiproliferative assay, MDA-MB-231; conditions: Homo sapiens, MDA-MB-231, 72 h, read-out: Antiproliferative IC50 MDA-MB-231
smiles,measurement,setting,value
"O=C(CCCCCCC(=O)Nc1ccccc1)NO [SAHA, Vorinostat, reference compound]",IC50,[1],3.75 ± 0.21 µM
same,HDACs percentage inhibitory rate (PIR),[2],50.12 ± 0.74%
same,inhibition at 2 µM,[3],53.07 ± 0.25%
same,IC50,[4],4.56 ± 0.24 µM
same,IC50,[5],5.77 ± 0.15 µM
same,IC50,[6],5.88 ± 0.45 µM
same,IC50,[7],4.21 ± 0.35 µM

# Source: paper PMC9333195, “Discovery of 2-Phenylquinoline-4-Carboxylic Acid Derivatives as Novel Histone Deacetylase Inhibitors” (Frontiers in Chemistry, 2022)
